Source: the supplement of paper PMC10060354, “Discovery of a small molecule ligand of FRS2 that inhibits invasion and tumor growth” (Cellular Oncology, 2022)

Chains of the proteins cited; added tags and fusions are not shown. Lines headed by an entry give the natural chain unless they say otherwise; changes in a name come on top.
UniProt Q9BYJ9: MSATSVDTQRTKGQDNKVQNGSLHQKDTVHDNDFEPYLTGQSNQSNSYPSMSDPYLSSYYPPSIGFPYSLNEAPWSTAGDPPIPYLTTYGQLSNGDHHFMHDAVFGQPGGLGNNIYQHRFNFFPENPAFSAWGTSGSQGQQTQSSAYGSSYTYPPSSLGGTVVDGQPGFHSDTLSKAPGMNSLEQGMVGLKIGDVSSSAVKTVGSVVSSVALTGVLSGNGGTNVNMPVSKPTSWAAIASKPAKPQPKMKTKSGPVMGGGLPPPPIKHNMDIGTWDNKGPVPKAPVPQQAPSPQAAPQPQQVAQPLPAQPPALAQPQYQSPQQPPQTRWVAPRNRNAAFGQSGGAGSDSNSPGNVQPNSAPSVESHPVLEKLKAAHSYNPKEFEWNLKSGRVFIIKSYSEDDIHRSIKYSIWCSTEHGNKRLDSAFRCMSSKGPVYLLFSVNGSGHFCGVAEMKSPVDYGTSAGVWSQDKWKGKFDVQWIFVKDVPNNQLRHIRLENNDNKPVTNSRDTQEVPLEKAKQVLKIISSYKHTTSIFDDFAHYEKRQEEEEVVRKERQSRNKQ
UniProt O14656: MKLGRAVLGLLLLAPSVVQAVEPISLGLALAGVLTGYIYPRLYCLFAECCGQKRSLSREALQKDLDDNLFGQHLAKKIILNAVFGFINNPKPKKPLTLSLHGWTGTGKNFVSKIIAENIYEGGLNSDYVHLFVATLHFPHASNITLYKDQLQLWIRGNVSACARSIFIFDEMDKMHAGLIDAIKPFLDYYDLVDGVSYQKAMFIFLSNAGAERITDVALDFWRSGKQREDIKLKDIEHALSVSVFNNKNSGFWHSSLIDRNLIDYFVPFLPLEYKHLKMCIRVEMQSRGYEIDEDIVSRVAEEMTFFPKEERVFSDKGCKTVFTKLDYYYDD
UniProt Q9BRT2: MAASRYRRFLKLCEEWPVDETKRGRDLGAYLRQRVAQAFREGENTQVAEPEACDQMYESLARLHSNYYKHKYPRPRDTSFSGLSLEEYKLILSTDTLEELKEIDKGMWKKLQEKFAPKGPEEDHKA
UniProt Q9UBB9: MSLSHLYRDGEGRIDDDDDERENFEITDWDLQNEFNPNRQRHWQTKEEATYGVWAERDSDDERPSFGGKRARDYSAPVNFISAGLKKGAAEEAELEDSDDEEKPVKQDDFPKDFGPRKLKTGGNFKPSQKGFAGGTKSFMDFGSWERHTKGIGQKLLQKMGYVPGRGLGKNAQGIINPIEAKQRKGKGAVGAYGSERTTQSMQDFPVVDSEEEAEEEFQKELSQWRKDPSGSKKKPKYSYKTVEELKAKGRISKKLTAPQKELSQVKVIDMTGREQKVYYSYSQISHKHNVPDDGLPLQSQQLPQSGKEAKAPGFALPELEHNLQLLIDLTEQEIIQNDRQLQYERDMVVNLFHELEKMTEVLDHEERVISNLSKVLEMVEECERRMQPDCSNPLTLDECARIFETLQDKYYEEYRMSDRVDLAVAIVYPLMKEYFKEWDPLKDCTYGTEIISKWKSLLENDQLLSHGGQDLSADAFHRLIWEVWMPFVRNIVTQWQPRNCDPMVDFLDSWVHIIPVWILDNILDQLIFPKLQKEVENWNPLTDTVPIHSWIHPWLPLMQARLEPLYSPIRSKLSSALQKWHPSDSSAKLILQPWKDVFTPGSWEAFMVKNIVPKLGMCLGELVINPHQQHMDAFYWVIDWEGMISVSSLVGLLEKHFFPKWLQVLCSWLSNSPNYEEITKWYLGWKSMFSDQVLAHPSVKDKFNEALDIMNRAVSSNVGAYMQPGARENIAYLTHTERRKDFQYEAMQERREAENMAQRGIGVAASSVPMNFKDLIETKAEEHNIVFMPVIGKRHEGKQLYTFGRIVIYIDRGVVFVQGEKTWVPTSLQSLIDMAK
UniProt P00374: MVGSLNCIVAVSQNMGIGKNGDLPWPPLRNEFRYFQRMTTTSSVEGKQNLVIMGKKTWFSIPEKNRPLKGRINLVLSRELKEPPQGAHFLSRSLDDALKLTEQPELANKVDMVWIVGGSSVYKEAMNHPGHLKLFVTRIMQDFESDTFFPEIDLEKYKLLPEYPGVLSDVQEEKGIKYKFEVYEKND
UniProt P14921: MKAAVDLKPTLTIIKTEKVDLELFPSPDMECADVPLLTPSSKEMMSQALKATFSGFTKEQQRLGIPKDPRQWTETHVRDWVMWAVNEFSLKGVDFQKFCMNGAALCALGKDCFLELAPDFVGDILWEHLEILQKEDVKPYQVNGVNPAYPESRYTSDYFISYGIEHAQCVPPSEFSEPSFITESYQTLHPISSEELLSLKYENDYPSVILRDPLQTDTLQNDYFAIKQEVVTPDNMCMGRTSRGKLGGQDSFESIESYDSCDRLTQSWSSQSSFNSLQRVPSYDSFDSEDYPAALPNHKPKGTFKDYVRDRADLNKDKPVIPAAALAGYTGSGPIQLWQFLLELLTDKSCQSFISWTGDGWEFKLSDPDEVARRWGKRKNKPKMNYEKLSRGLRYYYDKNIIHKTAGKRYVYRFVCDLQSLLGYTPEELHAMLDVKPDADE
UniProt Q9ULV0, whole entry: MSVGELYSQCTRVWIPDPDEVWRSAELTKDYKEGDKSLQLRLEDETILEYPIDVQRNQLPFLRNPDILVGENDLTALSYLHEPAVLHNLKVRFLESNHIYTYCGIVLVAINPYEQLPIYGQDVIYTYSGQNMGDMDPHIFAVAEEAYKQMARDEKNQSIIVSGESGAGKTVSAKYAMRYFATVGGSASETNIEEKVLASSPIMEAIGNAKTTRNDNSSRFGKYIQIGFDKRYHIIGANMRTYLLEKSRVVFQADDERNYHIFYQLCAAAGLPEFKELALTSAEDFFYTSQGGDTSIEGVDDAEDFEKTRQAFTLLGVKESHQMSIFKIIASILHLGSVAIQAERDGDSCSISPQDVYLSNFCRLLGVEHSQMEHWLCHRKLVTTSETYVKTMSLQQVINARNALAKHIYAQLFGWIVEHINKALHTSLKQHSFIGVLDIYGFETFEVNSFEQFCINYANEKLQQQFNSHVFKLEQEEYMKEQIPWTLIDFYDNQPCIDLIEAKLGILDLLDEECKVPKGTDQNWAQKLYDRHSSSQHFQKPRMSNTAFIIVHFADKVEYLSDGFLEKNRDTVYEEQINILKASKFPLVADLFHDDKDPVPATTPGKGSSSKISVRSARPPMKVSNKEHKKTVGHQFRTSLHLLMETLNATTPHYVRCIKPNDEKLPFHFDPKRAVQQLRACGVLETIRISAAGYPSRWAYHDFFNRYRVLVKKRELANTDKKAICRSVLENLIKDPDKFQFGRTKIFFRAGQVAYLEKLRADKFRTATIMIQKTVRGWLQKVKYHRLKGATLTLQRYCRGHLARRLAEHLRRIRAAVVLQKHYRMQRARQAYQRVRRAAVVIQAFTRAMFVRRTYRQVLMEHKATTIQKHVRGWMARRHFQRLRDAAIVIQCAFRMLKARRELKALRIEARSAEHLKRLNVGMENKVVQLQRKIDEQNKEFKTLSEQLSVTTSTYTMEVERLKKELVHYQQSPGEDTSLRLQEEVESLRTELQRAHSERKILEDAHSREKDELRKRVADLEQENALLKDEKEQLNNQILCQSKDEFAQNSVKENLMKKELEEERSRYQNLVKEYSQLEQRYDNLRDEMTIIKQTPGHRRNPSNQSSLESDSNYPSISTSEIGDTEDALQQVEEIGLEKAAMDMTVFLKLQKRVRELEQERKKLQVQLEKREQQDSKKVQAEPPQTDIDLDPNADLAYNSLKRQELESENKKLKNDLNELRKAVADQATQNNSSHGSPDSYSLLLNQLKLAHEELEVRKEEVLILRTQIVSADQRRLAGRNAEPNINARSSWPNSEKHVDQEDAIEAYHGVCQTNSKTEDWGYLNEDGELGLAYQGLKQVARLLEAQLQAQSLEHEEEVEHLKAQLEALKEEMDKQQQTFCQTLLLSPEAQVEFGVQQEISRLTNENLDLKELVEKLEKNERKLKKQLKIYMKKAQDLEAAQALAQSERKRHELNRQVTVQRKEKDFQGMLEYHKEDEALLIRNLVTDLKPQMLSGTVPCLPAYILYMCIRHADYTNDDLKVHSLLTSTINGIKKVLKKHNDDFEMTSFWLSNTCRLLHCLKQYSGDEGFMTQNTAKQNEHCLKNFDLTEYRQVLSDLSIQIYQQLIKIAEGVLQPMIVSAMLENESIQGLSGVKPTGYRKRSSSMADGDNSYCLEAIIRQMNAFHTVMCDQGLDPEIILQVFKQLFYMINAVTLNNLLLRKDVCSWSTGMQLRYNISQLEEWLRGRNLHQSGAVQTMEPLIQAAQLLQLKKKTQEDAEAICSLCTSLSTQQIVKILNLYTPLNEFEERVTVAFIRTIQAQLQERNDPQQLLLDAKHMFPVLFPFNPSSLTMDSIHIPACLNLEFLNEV
UniProt Q99543: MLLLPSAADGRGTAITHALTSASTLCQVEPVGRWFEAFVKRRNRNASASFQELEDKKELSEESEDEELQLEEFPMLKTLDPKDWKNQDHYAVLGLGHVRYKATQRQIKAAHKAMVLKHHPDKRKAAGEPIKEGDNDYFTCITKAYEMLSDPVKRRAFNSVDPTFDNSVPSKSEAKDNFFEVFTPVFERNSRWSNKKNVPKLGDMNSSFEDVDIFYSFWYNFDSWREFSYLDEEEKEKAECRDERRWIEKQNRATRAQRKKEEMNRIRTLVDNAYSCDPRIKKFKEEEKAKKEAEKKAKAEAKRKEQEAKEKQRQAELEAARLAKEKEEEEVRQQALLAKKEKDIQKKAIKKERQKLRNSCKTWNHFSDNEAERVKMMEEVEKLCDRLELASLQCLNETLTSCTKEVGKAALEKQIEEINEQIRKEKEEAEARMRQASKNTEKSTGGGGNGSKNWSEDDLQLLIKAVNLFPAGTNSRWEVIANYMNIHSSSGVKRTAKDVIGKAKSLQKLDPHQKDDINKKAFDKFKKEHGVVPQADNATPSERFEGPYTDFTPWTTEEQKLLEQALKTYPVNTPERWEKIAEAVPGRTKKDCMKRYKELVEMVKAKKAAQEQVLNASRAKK
UniProt Q6NXR0: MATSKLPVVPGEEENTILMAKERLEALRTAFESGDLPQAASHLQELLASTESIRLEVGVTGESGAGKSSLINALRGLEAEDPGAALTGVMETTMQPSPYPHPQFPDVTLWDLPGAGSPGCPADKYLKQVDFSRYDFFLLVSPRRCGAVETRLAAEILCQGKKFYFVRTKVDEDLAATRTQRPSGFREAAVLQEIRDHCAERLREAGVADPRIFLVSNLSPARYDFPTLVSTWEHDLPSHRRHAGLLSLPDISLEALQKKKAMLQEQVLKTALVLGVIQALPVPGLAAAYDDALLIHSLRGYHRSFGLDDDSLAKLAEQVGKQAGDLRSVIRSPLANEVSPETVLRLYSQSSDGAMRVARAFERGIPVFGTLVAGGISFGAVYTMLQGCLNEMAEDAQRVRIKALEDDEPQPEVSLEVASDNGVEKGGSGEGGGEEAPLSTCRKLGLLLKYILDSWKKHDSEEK
UniProt P29323: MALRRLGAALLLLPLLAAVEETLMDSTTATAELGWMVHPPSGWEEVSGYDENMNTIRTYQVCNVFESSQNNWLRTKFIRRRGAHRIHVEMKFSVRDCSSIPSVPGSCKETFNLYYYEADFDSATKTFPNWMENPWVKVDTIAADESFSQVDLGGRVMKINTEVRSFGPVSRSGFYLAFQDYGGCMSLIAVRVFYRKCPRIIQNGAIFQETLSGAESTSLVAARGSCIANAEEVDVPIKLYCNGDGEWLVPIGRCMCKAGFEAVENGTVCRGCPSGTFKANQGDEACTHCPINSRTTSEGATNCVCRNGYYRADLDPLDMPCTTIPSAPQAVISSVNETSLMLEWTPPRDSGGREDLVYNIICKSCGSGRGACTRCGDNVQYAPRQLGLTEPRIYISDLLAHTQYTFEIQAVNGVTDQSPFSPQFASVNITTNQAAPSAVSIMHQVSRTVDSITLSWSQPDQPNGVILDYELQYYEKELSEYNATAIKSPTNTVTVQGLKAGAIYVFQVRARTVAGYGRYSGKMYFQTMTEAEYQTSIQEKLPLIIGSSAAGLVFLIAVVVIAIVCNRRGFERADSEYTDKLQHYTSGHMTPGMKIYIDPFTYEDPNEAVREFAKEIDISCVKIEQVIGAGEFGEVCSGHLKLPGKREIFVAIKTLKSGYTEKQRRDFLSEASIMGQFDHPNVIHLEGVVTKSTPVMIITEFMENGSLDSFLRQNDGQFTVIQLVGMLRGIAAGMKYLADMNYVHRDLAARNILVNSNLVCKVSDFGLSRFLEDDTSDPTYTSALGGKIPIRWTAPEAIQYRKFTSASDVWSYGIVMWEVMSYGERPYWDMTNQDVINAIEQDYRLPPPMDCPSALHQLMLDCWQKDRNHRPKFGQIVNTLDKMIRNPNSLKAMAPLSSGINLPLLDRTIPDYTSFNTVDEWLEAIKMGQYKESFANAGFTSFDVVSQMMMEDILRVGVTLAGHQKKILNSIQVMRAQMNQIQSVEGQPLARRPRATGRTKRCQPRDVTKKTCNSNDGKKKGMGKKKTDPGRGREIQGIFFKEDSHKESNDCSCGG

Compound: [O-][N+](C(C1=C(C(O)=C2)NC(C(C=C3)=CC=C3Cl)C4C1C=CC4)=C2Cl)=O
Assay: melting temperature shift (compound 7 minus DMSO); higher = compound stabilises the protein
Settings: 10 µM
Procedure: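 Thermal proteome profiling (TMT mass spectrometry) in intact DAOY medulloblastoma cells or DAOY lysates treated with 10 µM compound 7 or DMSO, heated at 10 temperatures from 40.5 to 73.8 °C for 3 min. Melting curves were fitted with the Bioconductor TPP package, and the melting point difference between compound and vehicle is reported per protein (single curve per condition).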

[1] = system: DAOY cell lysate, treatment time: 20 min, 4 °C
[2] = system: intact DAOY cells, treatment time: 90 min, 37 °C

Target	melting temperature shift [1]	melting temperature shift [2]
YTHDF1 (UniProt Q9BYJ9)	0.0661 °C	1.25 °C
PRMT6 (UniProt Q96LA8)	-2.6 °C	-0.0971 °C
KIAA0196 (UniProt Q12768)	-0.655 °C	0.513 °C
TOR1A (UniProt O14656)	0.425 °C	-0.684 °C
FIGNL1 (UniProt Q6PIW4)	-0.95 °C	-1.96 °C
POP4 (UniProt O95707)	-0.653 °C	
ANXA2 (UniProt P07355)	0.228 °C	0.336 °C
GAPVD1 (UniProt Q14C86)	-0.972 °C	-0.59 °C
RNF214 (UniProt Q8ND24)	0.0795 °C	-0.0904 °C
UniProt Q05397	-0.438 °C	-0.992 °C
UQCC2 (UniProt Q9BRT2)	1.23 °C	-0.342 °C
PDIA6 (UniProt Q15084)	0.78 °C	0.109 °C
LYPLA2 (UniProt O95372)	-0.27 °C	0.245 °C
CARS2 (UniProt Q9HA77)	0.637 °C	-1.45 °C
UniProt Q13888	0.44 °C	
TFIP11 (UniProt Q9UBB9)	0.0926 °C	0.862 °C
DHFR (UniProt P00374)	-1.38 °C	-0.0904 °C
ETS1 (UniProt P14921)	-1.76 °C	-3.78 °C
UniProt P05121	1.09 °C	0.446 °C
MTX2 (UniProt O75431)	0.587 °C	1.25 °C
SUPT4H1 (UniProt P63272)	-1.47 °C	-0.364 °C

4 successive records from above, for reference:
Target	melting temperature shift [1]	melting temperature shift [2]
GAPVD1 (UniProt Q14C86)	-0.972 °C	-0.59 °C
RNF214 (UniProt Q8ND24)	0.0795 °C	-0.0904 °C
UniProt Q05397	-0.438 °C	-0.992 °C
UQCC2 (UniProt Q9BRT2)	1.23 °C	-0.342 °C

(listing goes on)

Target	melting temperature shift [1]	melting temperature shift [2]
ADAR (UniProt P55265)	0.321 °C	-0.932 °C
RABEP1 (UniProt Q15276)	-0.682 °C	0.832 °C
HNRNPUL2 (UniProt Q1KMD3)	0.0779 °C	-1.08 °C
UniProt Q9ULV0		-0.38 °C
OGDH (UniProt Q02218)	0.166 °C	-0.113 °C
GMPS (UniProt P49915)	-0.354 °C	-0.685 °C
POLR2I (UniProt P36954)	0.88 °C	
UniProt Q8NFJ8		-0.173 °C
GMEB2 (UniProt Q9UKD1)	-1.84 °C	
RPL31 (UniProt P62899)	0.67 °C	-0.657 °C
HERC4 (UniProt Q5GLZ8)	-0.339 °C	-0.537 °C
BZW2 (UniProt Q9Y6E2)	-0.418 °C	-0.788 °C
UniProt O15484	-0.332 °C	
DNAJC2 (UniProt Q99543)	-1.21 °C	-0.525 °C
NCEH1 (UniProt Q6PIU2)	0.926 °C	-1.43 °C
ESD (UniProt P10768)	-0.489 °C	-0.466 °C
DTL (UniProt Q9NZJ0)		0.709 °C
UniProt Q6NXR0	-1.96 °C	
AGPAT5 (UniProt Q9NUQ2)	3.68 °C	
EPHB2 (UniProt P29323)	1.12 °C	-0.239 °C

Repeats are few or missing, and single values can be far off.
